Assay results as given in patent US7361675B2, “1,2,4-thiadiazole compounds and use thereof” (Sumitomo Chemical Company Limited, priority 2002, dated 2008).
Some results were stated once for a whole list of compounds, not compound by compound.

Tested on: cotton aphids (Aphis gossypii)
Test: Test Example 1: cotton aphid control on cucumber (foliar scattering)
Format: in vivo
Details: 500 ppm, scattered on cucumber at 20 ml/cup, six days after scattering

C#CCOc1nsc(-c2ccccc2)n1 [compound (1), 5-phenyl-3-propargyloxy-1,2,4-thiadiazole]
controlling value: ≥ 90%

CC#CCOc1nsc(-c2ccccc2)n1 [compound (2), 5-phenyl-3-(2-butynyloxy)-1,2,4-thiadiazole]
controlling value: ≥ 90%

CC#CCOc1nsc(-c2ccccc2F)n1 [compound (5), 5-(2-fluorophenyl)-3-(2-butynyloxy)-1,2,4-thiadiazole]
controlling value: ≥ 90%

CC#CCOc1nsc(-c2cccc(F)c2)n1 [compound (6), 5-(3-fluorophenyl)-3-(2-butynyloxy)-1,2,4-thiadiazole]
controlling value: ≥ 90%

CC#CCOc1nsc(-c2cccc(F)c2F)n1 [compound (16), 5-(2,3-difluorophenyl)-3-(2-butynyloxy)-1,2,4-thiadiazole]
controlling value: ≥ 90%
